Measured values as given in paper PMC3517593.
These are yes or no findings as the source states them, for the method shown. Binding seen in cells or lysates may run through a third protein. Where a sequence is shown, tags or fusion partners need not be part of it.

By UniProt entry, the sequences of proteins in these tests, tags left out.
UniProt P84022: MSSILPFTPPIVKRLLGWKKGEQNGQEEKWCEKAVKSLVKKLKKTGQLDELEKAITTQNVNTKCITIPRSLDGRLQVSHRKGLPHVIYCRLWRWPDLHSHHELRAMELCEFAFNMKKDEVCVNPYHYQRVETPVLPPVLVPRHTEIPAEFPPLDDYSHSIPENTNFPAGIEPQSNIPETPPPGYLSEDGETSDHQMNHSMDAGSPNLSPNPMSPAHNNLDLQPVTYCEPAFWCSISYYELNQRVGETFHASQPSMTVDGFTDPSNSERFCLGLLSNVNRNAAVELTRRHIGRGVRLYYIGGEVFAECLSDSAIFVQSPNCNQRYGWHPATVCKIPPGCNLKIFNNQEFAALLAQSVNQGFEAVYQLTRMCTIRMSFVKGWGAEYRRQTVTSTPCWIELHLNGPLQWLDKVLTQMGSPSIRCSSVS

Target: T1, HA-tagged ΔNp73α (UniProt O15350)
T1 sequence: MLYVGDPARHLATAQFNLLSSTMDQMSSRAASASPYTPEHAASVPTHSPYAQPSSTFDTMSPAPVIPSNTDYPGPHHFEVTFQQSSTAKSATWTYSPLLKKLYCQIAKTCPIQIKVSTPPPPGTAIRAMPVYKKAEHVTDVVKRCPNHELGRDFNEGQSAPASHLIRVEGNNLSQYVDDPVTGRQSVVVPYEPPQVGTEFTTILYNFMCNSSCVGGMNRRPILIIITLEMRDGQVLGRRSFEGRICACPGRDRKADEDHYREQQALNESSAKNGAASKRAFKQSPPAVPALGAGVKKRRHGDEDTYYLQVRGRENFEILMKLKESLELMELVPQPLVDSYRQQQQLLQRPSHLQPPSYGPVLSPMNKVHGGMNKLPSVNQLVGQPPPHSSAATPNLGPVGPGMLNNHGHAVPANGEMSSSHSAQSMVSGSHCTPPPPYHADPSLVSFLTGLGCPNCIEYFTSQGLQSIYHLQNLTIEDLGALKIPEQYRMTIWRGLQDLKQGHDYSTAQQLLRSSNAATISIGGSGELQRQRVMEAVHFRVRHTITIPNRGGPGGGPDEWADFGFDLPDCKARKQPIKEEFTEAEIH
Assay: co-IP; immunoprecipitation with α-HA antibody from extracts of soluble proteins of Hek293ΔNp73 cells, left untreated, treated with 1 ng/ml TGF-β1, ΔNp73 induced (1 µg/ml tetracycline) or both; blotted with α-HA or α-Smad3; no DNA added

“endogenous Smad3 (from UniProt P84022 1-425)” was tested, and the binding was “no binding”.
